From ROBIN, a set of small-molecule microarray screens (doi:10.1002/anie.202211358).

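The test is a small-molecule microarray: each compound is printed twice on a reactive slide, and binding shows as fluorescence of the labelled oligonucleotide after washing. For the PreQ1, TPP and SAM-II riboswitches the laboratory earlier reported (doi:10.1038/s41467-019-09493-3) 1 µM RNA, 2 h, and a rule that included a mean Z-score above 3 (spot signal-to-noise against the whole library), a score well above that on a control array, and duplicate spots agreeing (coefficient of variation under 100). The data file gives only the calls; its cut-offs may differ, and compounds hitting several targets are kept. A missing hit is not proof of no binding, and a hit is not a measured affinity.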 A compound is marked Y if it was called a hit and N if it was screened but was not. This is an unselected part of the compounds tested.

Oligonucleotides screened, 5′ to 3′:
SAM-II: SAM-II riboswitch RNA pseudoknot, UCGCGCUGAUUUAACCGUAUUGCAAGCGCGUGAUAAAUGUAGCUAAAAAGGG. Hit rate about 1% of about 21,000 compounds.

compound,SAM-II
O=C(Nc1ccc(CN2CCOCC2)cc1)N1CCNC(c2ccccc2)C1 (centres undefined),N
Cc1nc(NCC(O)COc2ccc(Cl)c(C)c2)c2cnn(C)c2n1 (centres undefined),N
Nc1ccc(-c2nccc(CCC(F)(F)F)n2)cn1,N
C=Cc1ccc(-c2csc(N)n2)cc1,N
CNCC(=O)NCc1cccnc1Oc1ccccc1OC,N
CCOC(=O)c1nc(Nc2ccc(Br)cc2)c2ccccc2n1,N
Cn1ncc2c(Nc3ccc(Br)cc3)nc(Nc3ccc(Br)cc3)nc21,N
Cn1c(=O)[nH]c(=O)c2c1nc1n(CCCCO)c(-c3ccccc3)cn21,N
C=CCC1=CC=CC(=CNNC(=O)CN2CCN(Cc3ccccc3)CC2)C1=O,N
Clc1ccc(Nc2nc(-c3cccnc3)cs2)cc1,N
Cc1nc(CCNC(=O)CC2COCCN2)nc2c1CCC2 (centres undefined),N
CCC1(C)CC(CCNCc2ccccc2)(C(C)C)CCO1 (centres undefined),N
C=CCn1cc(CNCC2CCN(c3cnn(C)c(=O)c3)C2)c(C)n1 (centres undefined),N
CCCc1nc2ccccc2n1CC(O)COc1ccccc1C(C)=O (centres undefined),N
O=C(COC(=O)c1ccc(C(O)c2ccccc2)cc1)c1ccccc1 (centres undefined),N
COc1ccc(OC)c(C2C(C(=O)c3ccccc3)=C(O)C(=O)N2CC(C)O)c1 (centres undefined),N
CCN(CC)S(=O)(=O)c1ccc(Nc2c3c(nc4ccccc24)CCCC3)cc1,N
CCc1nc2c(c(C)c(C)n2CCCN(C)C)c(N)c1C,N
O=C1C=CC(=O)N1c1ccc(I)cc1Cl,N
CCOCCn1nc(C)cc1C(=O)N1CCC(N2CCCC(O)C2)CC1 (centres undefined),N
N#CC1=C(N)Oc2[nH]nc(-c3cccs3)c2C1c1ccc(C(F)(F)F)cc1 (centres undefined),N
Cc1ncc(C(=O)N[C@@H]2CCNC2)c(-c2ccccc2)n1,N
Cc1ccc(NC(=S)NC(=O)c2ccccc2)cc1NC(=S)NC(=O)c1ccccc1,N
C#CCN(C)CC1=Cc2ccccc2Oc2ccccc21,N
O=C(Nc1ccccc1)C1=C(NCc2ccco2)c2ccccc2S1(=O)=O,N
CN(C)C[C@@H]1CN(Cc2cccc(OCC(N)=O)c2)C[C@@H]1CO,N
Cn1ccnc1-c1cn(CCc2nnc(N)s2)nn1,N
CCOC(=O)c1ccccc1NC1c2ccccc2C(=O)N1c1ccc(C)cn1 (centres undefined),N
CN1CCN([C@H]2CCN(Cc3ccc(C#CCO)cc3)C[C@H]2CCC(=O)O)CC1,N
Cc1nn(CC(=O)NCC(O)c2cccc(F)c2)c(=O)c2ccccc12 (centres undefined),N
CCOC(=O)[C@H](CCc1ccccc1)N[C@@H](C)C(=O)N1CCC[C@@H]1C(=O)O,N
CCOC(=O)c1cccc(N2C(=O)C3C4C=CC(CO)(O4)C3C2=O)c1 (centres undefined),N
CN(CCO)C[C@@H]1CN(c2ncnc3sccc23)C[C@@H]1CO,N
Oc1ccc(/N=N/c2nccs2)c(O)c1,N
Cc1c(Cl)cccc1Nc1ncccc1C(=O)OCC(O)CO (centres undefined),N
COc1ccc(C2=NOC(CO)C2)cc1 (centres undefined),N
CN(C)CCc1c[nH]c2ccc(C[C@H]3COC(=O)N3)cc12,N
Cc1ccsc1CN(CC(C)C)CC(O)CO (centres undefined),N
CC(=O)Nc1cc(NC(=O)N2CCN([C@H]3CCCC[C@@H]3O)CC2)ccc1F,N
CCC1CN(C(CO)CO)CCC(=O)N1Cc1ccccc1 (centres undefined),N
Cc1ccnn1CCC(=O)N1C[C@@H](CN2CCCN(C)CC2)[C@@H](CO)C1,N
COC1CCN(S(=O)(=O)N2CCNC(C(=O)O)C2)CC1 (centres undefined),N
NC(=O)Oc1cccc(OC(N)=O)c1,N
CC(C)CC1(CO)CCCN(C[C@H]2CC[C@@H](N)CC2)C1 (some centres undefined),N
Cc1cc(O)c2cc(C(=O)c3ccccc3)ccc2n1,N
CN(C)c1cncc(-c2cc(O)cc(CCC3CCCCN3)c2)n1 (centres undefined),N
O=C(CSc1nnc(CCCO)n1-c1ccccc1)N1CCc2ccccc21,N
CCOC(=O)N1CCc2c(sc(NCc3cccc(F)c3)c2C(=O)Nc2ccccc2OCC)C1,N
Fc1ccccc1Nc1nc(-c2cccnc2)cs1,N
CNC(=O)c1ccc(CN2CCN(c3cc(O)ncn3)CC(O)C2)o1 (centres undefined),N
CCCCC1CCCN1C(=O)c1sc(N)nc1CC (centres undefined),N
Cc1cnc(Nc2ccc(OCCN3CCCC3)cc2)nc1Nc1cccc(S(=O)(=O)NC(C)(C)C)c1,N
CCc1cccc(NC(=O)c2nccnc2CO)c1,N
Nc1ccc(C(=O)c2cc3c(ccc4ccccc43)[nH]2)cc1,N
CCN(CC)S(=O)(=O)c1ccc(NC2c3ncccc3C(=O)N2Cc2ccccc2)cc1 (centres undefined),N
Nc1nccc(NCc2cc3n(n2)CCCN(C(=O)C2CCC2)C3)n1,N
O=C(CC1CCNC1)NCC1(c2ccc(Cl)cc2)CC1 (centres undefined),N

Some entries from above, unchanged:

* CN(CCO)C[C@@H]1CN(c2ncnc3sccc23)C[C@@H]1CO : SAM-II: N
* CCOC(=O)N1CCc2c(sc(NCc3cccc(F)c3)c2C(=O)Nc2ccccc2OCC)C1 : SAM-II: N
* Fc1ccccc1Nc1nc(-c2cccnc2)cs1 : SAM-II: N